Laboratory results as given in US9345744B2, “Peptide-based collagen modulators for wound healing and tissue repair” (MUSC FOUNDATION FOR RESEARCH DEVELOPMENT, priority 2012, dated 2016).
Entries after “also recorded” stand apart in the source; their conditions may differ. At least one peptide structure holds a part that was inferred or is arguable (an end, a ring closure or a residue). Some of these results come from one statement about several compounds together. Where a SMILES comes first, the peptide text is derived from it. [ ]: non-standard residue; d: D form.

Chains of the proteins cited; added tags and fusions are not shown.
UniProt P17302, whole entry: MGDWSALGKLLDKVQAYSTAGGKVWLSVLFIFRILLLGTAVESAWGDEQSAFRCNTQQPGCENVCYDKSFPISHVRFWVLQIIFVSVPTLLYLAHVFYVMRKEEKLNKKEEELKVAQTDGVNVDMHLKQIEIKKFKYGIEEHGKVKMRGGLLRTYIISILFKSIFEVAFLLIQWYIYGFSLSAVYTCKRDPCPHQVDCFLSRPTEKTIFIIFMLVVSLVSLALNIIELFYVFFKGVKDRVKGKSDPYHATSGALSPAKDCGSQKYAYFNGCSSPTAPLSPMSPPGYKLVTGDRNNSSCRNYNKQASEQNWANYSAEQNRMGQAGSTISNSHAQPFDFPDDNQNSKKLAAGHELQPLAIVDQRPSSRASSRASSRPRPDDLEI

Experiments:
Cx43-HeLa cells [1] = assay: Immunofluorescent labeling of Cx43 and ZO-1; type: cell-based; conditions: 10 μM; for ZO-1 organization / cytoplasmic Cx43: 24 hours
[2] = tested on: Sprague-Dawley rats with silicone implant; assay: JM2-coated silicone implant under latissimus dorsi muscle, capsule histology; type: in vivo, rat
[3] = tested on: neonatal rat cardiac fibroblast cells; assay: Western blot of collagen type I in conditioned media and cell lysates of peptide-treated neonatal cardiac fibroblasts; type: cell-based; conditions: for secretion/production of mature, fully processed type I collagen (conditioned media): 30, 90, 180 μM; for secretion/production of mature, fully processed type I collagen (conditioned media) / mature type I collagen in conditioned media: overnight; for higher molecular weight collagen species in cell lysate: ACT1, highest doses of JM1 and JM2; for mature / processed type I collagen in NHF cell lysate: cell lysates, JM1, JM2 at maximum dose tested; for collagen synthesis, processing and secretion from fibroblasts: cultured fibroblasts, FIGS. 1 and 2; for amount of collagen produced relative to cells treated with poly-r peptide: equivalent concentrations (~90 μM); for mature type I collagen in conditioned media: highest dose tested (180 μM), western blot; for processed collagen intermediates in cell lysate: maximum dose tested; for reduction in mature type I collagen produced compared to ACT1: middle dose of 90 (printed 90 OA)
Excerpt: Isolation and treatment of Neonatal Cardiac Fibroblasts with Cx43 based peptides (peptides used included ACT1, JM1, JM2, Antenapedia [ANT], reverse ACT1 [Rev], poly Arginine [poly r]). Neonatal cardiac fibroblasts (NHFs) were isolated from 3-4 day old rat hearts by collagenase digestion (100 U/mL) and differential attachment as previously described (Borg et al., 1984). All cells were maintained in Dulbecco's Modified Eagle Medium (DMEM) supplemented with 10% Fetal Bovine Serum and 100 U/mL penicillin G and 100 μg/mL streptomycin and used prior to passage four. For experiments, 40,000 NHFs were plated into the wells of a 24-well tissue culture plate and grown for 24-48 hours. On the day of treatment, media was removed from each well and replaced with fresh media containing 50 μg/mL L-ascorbic acid-2-phosphate; Sigma Chemical Co., St. Louis, Mo.). The appropriate volume of each peptide (resuspended in sterile, deionized 18 MΩ resistivity water) was added to achieve the desired final concentration (30, 90, 180 μM peptide concentrations were tested). Culture plates were incubated overnight in a 37° C. incubator with 5% CO2.
Conditioned culture media was collected from each well and stored at −20° C. for analysis of soluble collagen. Cellular protein, including insoluble collagen and collagen still within the NHFs, were isolated by adding 100-200 μL of cell lysis buffer (0.01 M Tris, pH 7.4, 0.001 M Sodium Orthovanadate, 1% sodium dodecylsulfate [SDS]) to each well and incubating 10 minutes at room temperature. Prior to addition, cell lysis buffer was warmed to facilitate solubilzation of SDS and 100 μL of Halt protease inhibitor (Pierce Biotechnology, Rockford, Ill.) was added per 10 mL buffer to be used. After incubation, the well bottoms were scraped and liquid transferred to a microcentrifuge tube for storage at −20° C. Protein concentrations of cell lysates were determined using a Micro BCA assay (Pierce). SDS-PAGE samples were prepared by combining either 10 μg of cell lysate or 30 μL of conditioned media with XT loading buffer (BioRad, Hercules, Calif.), dithiotheritol and boiled for five minutes. Samples were loaded onto 3-8% Tris-Acetate Criterion XT gels (BioRad, Hercules, Calif.) and proteins separated at 140V. After electrophoresis, proteins were transferred onto 0.45 μm nitrocellulose membranes (BioRad) overnight at room temperature (Transfer buffer: 25 mM Tris, 192 mM Glycine, 20% Methanol, 0.01% SDS). The presence of collagen was determined by probing the membranes with a rabbit anti-mouse collagen type I antibody (MD Biosciences) at 1:20,000 dilution in blocking buffer (5% milk in Tris-buffered saline) followed by a goat anti-rabbit IgG horseradish peroxidase conjugated antibody at 1:100,000 (Southern Biotech Associates) and detection with Pierce SuperSignal Femto West detection reagent (Pierce).
To assess the activity of JM1 and JM2 peptides with respect to collagen production and their potential in mediating wound healing, cardiac fibroblasts were treated with these two peptides and their effectiveness compared to that for the previous described Cx43 peptide ACT1. NHFs were treated with various concentrations of JM1, JM2, ACT1, and ANT (Antenapedia) peptides, vehicle (water) or left untreated and the production of collagen both in the culture media and cell-associated collagen assessed by western blotting. […] To evaluate the impact of the poly-Arginine (poly-r) N-terminal sequence on JM1 and Jm2 activity, NHF cells were treated with a poly-r peptide.

Cx43-HeLa cells [4] = type: cell-based; conditions: at 24 hours
Cx43 hemichannel = biological target: T1, Cx43 hemichannel (Homo sapiens, UniProt P17302); assay: Ethidium bromide (EtBr) assay for hemichannel activity; type: cell-based; conditions: Cx43-HeLa cells, 50 μM, 2 hrs
T1 construct: expressed in transfected cells

[5] = tested on: Cx43 GJ channels in Cx43-HeLa cells; assay: Labeling of Cx43 gap junctions, N-cadherin and microtubules; type: cell-based

| SMILES | ZO-1 organization (Cx43-HeLa cells [1]) | cytoplasmic Cx43 (Cx43-HeLa cells [1]) | skeletal muscle necrosis ([2]; 24 hrs post-operation) | tissue reaction zone ([2]; 24 hrs post-operation) | secretion/production of mature, fully processed type I collagen (conditioned media) [3] | higher molecular weight collagen species in cell lysate [3] | mature / processed type I collagen in NHF cell lysate [3] | collagen synthesis, processing and secretion from fibroblasts [3] | amount of collagen produced relative to cells treated with poly-r peptide [3] | mature type I collagen in conditioned media [3] | processed collagen intermediates in cell lysate [3] | reduction in mature type I collagen produced compared to ACT1 [3] [%] | also measured |
| --- | --- | --- | --- | --- | --- | --- | --- | --- | --- | --- | --- | --- | --- |
| CC(C)[C@H](NC(=O)[C@H](CCCNC(=N)N)NC(=O)[C@H](CC(=O)O)NC(=O)[C@H](CCCCN)NC(=O)[C@@H](NC(=O)CNC(=O)[C@H](CCCCN)NC(=O)[C@H](Cc1ccccc1)NC(=O)[C@H](Cc1ccccc1)NC(=O)[C@@H](NC(=O)[C@@H](CCCNC(=N)N)NC(=O)[C@@H](CCCNC(=N)N)NC(=O)[C@@H](CCCNC(=N)N)NC(=O)[C@@H](CCCNC(=N)N)NC(=O)[C@@H](CCCNC(=N)N)NC(=O)[C@@H](CCCNC(=N)N)NC(=O)[C@@H](CCCNC(=N)N)NC(=O)[C@H](N)CCCNC(=N)N)C(C)C)C(C)C)C(=O)O [JM1, rrrr rrrr VFFKGVKDRV] (H-[dR][dR][dR][dR][dR][dR][dR][dR]VFFKGVKDRV-OH; N-terminus and C-terminus assumed) | relative levels at cell borders being increased over controls; also recorded: ZO-1 cell border labeling was enhanced | greater cytoplasmic Cx43 | little continued muscle necrosis | substantially narrower tissue reaction zone | dose-dependent decrease | absence of higher molecular weight collagen species | barely detectable mature collagen I a1 chains | strong inhibitory effect | less than half | no detectable mature collagen I a1 chains; also recorded: no mature type I collagen was detected | significant loss of processed intermediates | > 50 |  |
| CC(C)[C@H](NC(=O)CNC(=O)[C@H](CCCCN)NC(=O)[C@H](Cc1ccccc1)NC(=O)[C@H](Cc1ccccc1)NC(=O)[C@@H](NC(=O)[C@@H](CCCNC(=N)N)NC(=O)[C@@H](CCCNC(=N)N)NC(=O)[C@@H](CCCNC(=N)N)NC(=O)[C@@H](CCCNC(=N)N)NC(=O)[C@@H](CCCNC(=N)N)NC(=O)[C@@H](CCCNC(=N)N)NC(=O)[C@@H](CCCNC(=N)N)NC(=O)[C@H](N)CCCNC(=N)N)C(C)C)C(=O)N[C@@H](CCCCN)C(=O)N[C@@H](CC(=O)O)C(=O)N[C@@H](CCCNC(=N)N)C(=O)N[C@H](C(=O)N[C@@H](CCCCN)C(=O)NCC(=O)N[C@@H](CCCNC(=N)N)C(=O)N[C@@H](CO)C(=O)N[C@@H](CC(=O)O)C(=O)O)C(C)C [JM2, rrrr rrrr VFFKGVKDRVKGRSD] (H-[dR][dR][dR][dR][dR][dR][dR][dR]VFFKGVKDRVKGRSD-OH; N-terminus and C-terminus assumed) | relative levels at cell borders being increased over controls; also recorded: well defined cell-cell interfaces | greater cytoplasmic Cx43 | little evidence of muscle necrosis; also recorded: reduced skeletal muscle necrosis; also recorded: little continued muscle necrosis | substantially narrower tissue reaction zone | dose-dependent decrease | absence of higher molecular weight collagen species | barely detectable mature collagen I a1 chains | strong inhibitory effect | less than half | no detectable mature collagen I a1 chains; also recorded: no mature type I collagen was detected | significant loss of processed intermediates | > 50 | confluence (Cx43-HeLa cells [4]): more confluent than control cells; number of cells per area of field (Cx43-HeLa cells [1]): noticeable increase in the number of cells per area of field; surrounding skeletal muscle ([2]; 4.5 weeks post-operation): promoting the longterm maintenance, and/or growth and regeneration of skeletal muscle; also recorded: significantly higher levels of surrounding skeletal muscle; scar / capsule formation and fibrosis ([2]; 50 μL of 180 μM JM2, 4.5 weeks post-operation): decreased capsule formation, scarring and fibrosis; also recorded: narrower, more compact scar; inflammation / inflammatory infiltrate at implant ([2]; 50 μL of 180 μM peptide, 24 hrs post-operation): significantly lower levels of inflammatory cells; also recorded: decreased inflammation; hemichannel activity (Cx43 hemichannel): significantly reduced hemichannel activity to the level of wild-type HeLa cells; also recorded: reduces hemichannel activity; Cx43 GJ / cell-surface Cx43 labeling ([5]; 10 μM, 2 hrs): little GJ labeling; also recorded: decrease cell-surface Cx43 labeling; Cx43 GJ labeling ([5]; 10 μM, 6 hrs): began to return; Cx43 GJ labeling ([5]; 10 μM, 24 hrs): appeared normal; intracellular Cx43 labeling ([5]; 2 hr): increase in intracellular Cx43 labeling; microtubule organization ([5]; 2 hr, anti-α-tubulin): disruption of microtubule organization; cell-surface Cx43 in cultured cells ([5]; over 2, 6, and 24 hrs): temporarily reduces cell-surface Cx43 |
